Laboratory results published in paper PMC10045983.
No constants are given. Whether binding was seen depends on the method and setting. Binding seen in cells or lysates may run through a third protein. A yes stands for co-enrichment or nearness to the bait. Other partners may have been found.

By UniProt entry, the sequences of proteins in these tests, tags left out.
UniProt Q14432: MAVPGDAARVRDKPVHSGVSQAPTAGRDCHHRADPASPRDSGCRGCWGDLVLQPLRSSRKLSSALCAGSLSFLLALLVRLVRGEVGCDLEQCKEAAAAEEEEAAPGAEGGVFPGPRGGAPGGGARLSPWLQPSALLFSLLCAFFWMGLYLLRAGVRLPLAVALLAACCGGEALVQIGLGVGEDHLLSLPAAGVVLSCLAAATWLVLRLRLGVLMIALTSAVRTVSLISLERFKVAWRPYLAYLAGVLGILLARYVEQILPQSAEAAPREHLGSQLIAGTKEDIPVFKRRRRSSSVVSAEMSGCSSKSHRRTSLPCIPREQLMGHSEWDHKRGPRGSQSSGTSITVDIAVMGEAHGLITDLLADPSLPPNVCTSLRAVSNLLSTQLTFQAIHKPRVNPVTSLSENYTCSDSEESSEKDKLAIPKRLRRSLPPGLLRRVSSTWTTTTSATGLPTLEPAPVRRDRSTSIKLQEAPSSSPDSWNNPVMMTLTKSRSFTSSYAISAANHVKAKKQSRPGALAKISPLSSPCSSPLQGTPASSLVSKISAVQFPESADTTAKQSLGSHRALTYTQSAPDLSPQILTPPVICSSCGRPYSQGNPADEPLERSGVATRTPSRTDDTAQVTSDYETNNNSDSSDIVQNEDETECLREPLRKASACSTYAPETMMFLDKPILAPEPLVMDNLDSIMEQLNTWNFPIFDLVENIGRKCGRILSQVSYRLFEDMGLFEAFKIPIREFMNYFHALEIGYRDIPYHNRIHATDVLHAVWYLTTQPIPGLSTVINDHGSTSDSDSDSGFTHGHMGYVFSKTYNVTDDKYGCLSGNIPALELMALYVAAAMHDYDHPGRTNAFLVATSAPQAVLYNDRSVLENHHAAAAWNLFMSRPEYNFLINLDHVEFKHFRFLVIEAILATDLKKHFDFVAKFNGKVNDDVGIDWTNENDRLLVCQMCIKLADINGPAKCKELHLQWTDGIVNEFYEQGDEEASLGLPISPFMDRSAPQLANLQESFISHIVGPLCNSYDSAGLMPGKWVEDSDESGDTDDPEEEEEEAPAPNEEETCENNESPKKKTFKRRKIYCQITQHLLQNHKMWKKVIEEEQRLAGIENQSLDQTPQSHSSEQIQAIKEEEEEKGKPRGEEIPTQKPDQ
UniProt P11507: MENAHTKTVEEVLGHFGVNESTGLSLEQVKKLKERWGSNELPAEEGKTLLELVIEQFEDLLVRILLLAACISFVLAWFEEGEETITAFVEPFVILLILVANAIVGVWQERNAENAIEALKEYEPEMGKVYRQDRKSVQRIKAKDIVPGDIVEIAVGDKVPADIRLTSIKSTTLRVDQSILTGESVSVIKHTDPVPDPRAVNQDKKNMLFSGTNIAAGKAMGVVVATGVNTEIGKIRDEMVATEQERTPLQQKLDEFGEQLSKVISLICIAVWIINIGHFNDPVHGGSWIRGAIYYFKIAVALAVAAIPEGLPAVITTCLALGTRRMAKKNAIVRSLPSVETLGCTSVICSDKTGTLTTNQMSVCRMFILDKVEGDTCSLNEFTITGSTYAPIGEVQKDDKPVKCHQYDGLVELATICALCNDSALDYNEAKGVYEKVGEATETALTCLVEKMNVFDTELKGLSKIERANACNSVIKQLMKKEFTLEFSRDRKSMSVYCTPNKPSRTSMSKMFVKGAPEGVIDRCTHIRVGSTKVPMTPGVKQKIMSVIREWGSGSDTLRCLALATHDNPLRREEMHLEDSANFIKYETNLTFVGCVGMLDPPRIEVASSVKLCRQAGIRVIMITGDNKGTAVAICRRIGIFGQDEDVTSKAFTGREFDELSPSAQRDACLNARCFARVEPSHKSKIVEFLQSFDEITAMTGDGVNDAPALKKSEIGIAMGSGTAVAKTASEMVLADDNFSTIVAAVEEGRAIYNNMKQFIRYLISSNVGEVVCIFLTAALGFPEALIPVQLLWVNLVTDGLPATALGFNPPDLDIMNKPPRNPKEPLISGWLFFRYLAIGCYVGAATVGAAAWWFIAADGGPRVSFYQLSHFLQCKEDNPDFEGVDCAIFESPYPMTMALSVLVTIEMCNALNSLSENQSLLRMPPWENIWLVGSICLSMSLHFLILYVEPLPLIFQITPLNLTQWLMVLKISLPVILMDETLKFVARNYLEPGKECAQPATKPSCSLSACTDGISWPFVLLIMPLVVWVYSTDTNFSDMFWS
UniProt P26431: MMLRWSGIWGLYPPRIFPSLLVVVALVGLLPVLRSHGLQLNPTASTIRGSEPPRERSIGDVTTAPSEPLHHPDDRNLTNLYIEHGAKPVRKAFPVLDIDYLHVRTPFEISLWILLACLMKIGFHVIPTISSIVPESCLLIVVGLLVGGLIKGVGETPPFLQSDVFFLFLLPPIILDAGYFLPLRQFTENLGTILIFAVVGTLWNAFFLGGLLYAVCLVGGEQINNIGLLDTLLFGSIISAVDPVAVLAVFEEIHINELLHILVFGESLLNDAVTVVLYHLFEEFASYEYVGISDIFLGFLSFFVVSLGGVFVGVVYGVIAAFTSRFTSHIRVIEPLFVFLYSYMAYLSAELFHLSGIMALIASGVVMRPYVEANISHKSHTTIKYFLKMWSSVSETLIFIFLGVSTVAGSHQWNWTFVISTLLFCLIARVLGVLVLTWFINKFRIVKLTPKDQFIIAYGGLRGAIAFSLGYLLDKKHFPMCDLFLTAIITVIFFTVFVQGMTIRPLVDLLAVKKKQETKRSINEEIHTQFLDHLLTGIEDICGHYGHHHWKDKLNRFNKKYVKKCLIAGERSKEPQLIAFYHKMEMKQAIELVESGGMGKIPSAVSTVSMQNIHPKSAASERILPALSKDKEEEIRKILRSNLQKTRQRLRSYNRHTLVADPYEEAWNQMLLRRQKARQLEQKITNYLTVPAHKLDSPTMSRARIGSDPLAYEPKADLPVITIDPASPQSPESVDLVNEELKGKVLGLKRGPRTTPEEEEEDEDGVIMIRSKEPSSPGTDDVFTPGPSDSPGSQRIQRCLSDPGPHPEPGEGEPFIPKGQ

Target: PDE3A1-mCherry (UniProt Q14432)
Assay: affinity purification with mass spectrometry; PDE2A2-mCherry, PDE3A1-mCherry, PDE3A2-mCherry or mCherry purified from NRVM lysates on RFP-Trap beads, eluted with 8 mol/L urea, label-free quantification LC-MS/MS; mCherry alone as control

Row | Substance | binding
1 | SERCA2 (sarco-endoplasmic reticulum calcium ATPase 2) (from UniProt P11507 1-1043) | binds
2 | NHE1 (Na+/H+ exchanger 1) (from UniProt P26431 1-820) | binds
